Results: article PMC6853982
Results are given in words; binding and its absence hold for the method and conditions named. In cells and extracts the contact can be indirect. Some binding calls cover weakened binding; strength is not graded here. Sequences can lack the tags named with a protein.

Protein sequences, listed by entry. Tags and fused reporters are not part of them.
UniProt Q9SAF1: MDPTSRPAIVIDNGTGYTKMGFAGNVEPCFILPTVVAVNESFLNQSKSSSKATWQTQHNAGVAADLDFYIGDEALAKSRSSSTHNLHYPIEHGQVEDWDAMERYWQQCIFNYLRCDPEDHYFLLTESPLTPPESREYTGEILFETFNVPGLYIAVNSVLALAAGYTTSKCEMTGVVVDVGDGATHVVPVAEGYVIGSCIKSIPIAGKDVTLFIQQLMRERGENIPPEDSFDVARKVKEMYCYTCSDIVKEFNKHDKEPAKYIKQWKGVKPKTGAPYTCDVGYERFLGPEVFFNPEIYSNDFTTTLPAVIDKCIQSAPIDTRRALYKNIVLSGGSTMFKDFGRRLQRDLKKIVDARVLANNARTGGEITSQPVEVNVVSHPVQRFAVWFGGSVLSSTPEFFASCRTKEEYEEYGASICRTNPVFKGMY

T1: GFP-AtEH1/Pan1 T1 (Arabidopsis) (UniProt Q9LM78)
T1 sequence: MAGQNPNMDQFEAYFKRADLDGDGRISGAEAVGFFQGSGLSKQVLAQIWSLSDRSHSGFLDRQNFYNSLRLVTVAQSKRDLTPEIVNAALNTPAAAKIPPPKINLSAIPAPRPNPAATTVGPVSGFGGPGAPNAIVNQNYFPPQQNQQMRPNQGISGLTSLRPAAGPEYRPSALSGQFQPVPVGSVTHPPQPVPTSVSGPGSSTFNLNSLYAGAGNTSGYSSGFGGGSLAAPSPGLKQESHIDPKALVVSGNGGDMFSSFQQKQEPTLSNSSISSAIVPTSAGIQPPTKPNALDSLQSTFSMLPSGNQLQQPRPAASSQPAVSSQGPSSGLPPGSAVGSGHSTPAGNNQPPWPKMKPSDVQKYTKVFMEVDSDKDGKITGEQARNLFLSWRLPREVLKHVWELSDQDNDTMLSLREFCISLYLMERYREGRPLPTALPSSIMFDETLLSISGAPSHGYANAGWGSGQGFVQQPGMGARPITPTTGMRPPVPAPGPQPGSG

T2: GFP-AtEH1/Pan1 (Arabidopsis) (UniProt Q9LM78)
T2 sequence: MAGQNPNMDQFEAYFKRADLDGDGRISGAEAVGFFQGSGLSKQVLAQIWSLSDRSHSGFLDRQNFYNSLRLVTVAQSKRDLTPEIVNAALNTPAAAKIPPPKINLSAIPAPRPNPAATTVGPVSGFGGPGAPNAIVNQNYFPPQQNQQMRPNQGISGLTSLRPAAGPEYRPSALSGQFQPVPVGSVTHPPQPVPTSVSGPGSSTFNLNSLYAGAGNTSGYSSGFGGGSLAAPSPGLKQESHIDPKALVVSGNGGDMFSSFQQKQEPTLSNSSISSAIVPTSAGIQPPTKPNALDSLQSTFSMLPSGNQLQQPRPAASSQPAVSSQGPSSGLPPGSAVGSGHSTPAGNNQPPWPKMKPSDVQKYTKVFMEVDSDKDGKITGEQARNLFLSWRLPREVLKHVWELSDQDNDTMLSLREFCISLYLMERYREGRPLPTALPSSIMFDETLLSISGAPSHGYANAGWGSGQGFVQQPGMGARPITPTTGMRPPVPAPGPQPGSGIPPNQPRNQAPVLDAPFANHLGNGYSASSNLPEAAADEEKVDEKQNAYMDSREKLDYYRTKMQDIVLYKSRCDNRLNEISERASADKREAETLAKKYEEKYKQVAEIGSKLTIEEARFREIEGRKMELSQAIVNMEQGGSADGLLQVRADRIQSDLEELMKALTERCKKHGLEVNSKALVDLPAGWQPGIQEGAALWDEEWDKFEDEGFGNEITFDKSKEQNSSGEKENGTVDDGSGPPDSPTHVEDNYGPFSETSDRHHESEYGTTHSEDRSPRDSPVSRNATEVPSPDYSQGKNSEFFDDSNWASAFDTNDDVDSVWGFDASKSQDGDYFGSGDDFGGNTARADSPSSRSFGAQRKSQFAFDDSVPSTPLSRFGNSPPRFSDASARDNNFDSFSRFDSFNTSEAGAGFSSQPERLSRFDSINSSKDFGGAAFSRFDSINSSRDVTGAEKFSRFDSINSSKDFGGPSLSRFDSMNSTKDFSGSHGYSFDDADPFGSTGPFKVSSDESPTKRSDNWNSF


Experiments:
[1] = molecular target: T1, GFP-AtEH1/Pan1 T1 (Arabidopsis); assay: FRET or BRET; FRET-FLIM in N. benthamiana leaf cells transiently co-expressing the GFP donor and RFP acceptor fusions; GFP-AtEH1/Pan1 alone as donor control; whole field images
[2] = molecular target: T2, GFP-AtEH1/Pan1 (Arabidopsis); assay: co-IP; GFP-Trap_A beads on N. benthamiana leaf extract (10 mM Tris-HCl pH 7.5, 150 mM NaCl, 0.5 mM EDTA, 0.5% Triton-X100), 2 h on ice; supernatant and pellet analysed by western blot

binding [1]	binding [2]	Molecule
no binding	–	RFP-ARP3 (from UniProt Q9SAF1 1-427)
–	binds	RFP-VAP27-1 (protein, UniProt Q8VZ95 1-256) MSNIDLIGMSNRDLIGMSNSELLTVEPLDLQFPFELKKQISCSLYLTNKTDNNVAFKVKTTNPKKYCVRPNTGVVLPRSTCEVLVTMQAQKEAPSDMQCKDKFLLQGVIASPGVTAKEVTPEMFSKEAGHRVEETKLRVTYVAPPRPPSPVHEGSEEGSSPRASVSDNGHGSEFSFERFIVDNKAGHQENTSEARALITKLTEEKQSAIQLNNRLQRELDQLRRESKKSQSGGIPFMYVLLVGLIGLILGYIMKRT
